Source: paper PMC8292527
These are yes or no findings as the source states them, for the method shown. In cells and extracts the contact can be indirect. Some results given as binding are weak or reduced against the parent protein; the word gives no strength.

Amino acid sequences for entries named in this document (tags omitted). A change or cut given only in a name is not applied to a line headed by its entry. Chains listed by the source or under a name are the forms on record and can include a tag or linker. Residues count along the entry.
UniProt P08134: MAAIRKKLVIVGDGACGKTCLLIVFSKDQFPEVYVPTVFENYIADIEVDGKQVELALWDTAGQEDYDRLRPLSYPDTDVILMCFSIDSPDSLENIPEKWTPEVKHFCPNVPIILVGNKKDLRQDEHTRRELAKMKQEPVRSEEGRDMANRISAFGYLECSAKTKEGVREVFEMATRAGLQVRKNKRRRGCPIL
RhoC GAP binding site (aa34-39)-deleted truncate (ΔGAP) (P08134, form named): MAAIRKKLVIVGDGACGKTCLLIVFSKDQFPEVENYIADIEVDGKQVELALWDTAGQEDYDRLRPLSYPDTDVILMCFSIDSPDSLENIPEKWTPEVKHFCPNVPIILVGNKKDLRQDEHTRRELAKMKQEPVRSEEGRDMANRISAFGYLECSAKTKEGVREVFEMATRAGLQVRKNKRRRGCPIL
UniProt Q9H6X2, residues 33-564: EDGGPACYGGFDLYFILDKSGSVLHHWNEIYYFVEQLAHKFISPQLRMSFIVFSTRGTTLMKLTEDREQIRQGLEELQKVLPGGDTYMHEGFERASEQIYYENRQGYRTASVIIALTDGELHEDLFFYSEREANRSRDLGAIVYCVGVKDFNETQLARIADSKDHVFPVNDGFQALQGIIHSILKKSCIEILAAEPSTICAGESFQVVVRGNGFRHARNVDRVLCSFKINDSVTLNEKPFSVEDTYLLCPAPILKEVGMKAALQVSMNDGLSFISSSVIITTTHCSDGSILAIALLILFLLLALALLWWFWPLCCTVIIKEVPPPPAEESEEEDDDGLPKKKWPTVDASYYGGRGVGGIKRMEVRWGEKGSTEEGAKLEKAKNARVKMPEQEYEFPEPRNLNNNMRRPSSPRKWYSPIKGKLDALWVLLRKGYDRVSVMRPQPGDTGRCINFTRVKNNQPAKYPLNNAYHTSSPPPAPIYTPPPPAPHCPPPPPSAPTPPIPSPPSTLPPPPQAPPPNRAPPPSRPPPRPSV
UniProt P63092: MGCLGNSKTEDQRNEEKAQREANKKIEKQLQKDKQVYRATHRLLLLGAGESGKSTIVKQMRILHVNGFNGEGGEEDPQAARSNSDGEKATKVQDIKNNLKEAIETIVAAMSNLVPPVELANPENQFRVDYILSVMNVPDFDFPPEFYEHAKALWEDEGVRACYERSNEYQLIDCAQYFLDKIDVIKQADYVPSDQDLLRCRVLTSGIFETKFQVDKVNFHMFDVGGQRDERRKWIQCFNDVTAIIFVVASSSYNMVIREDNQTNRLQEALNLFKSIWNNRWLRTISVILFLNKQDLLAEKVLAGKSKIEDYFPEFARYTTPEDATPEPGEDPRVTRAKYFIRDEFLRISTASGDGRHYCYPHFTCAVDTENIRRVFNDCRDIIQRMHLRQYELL

How the values were obtained:
[1] = molecular target: Full length RhoC protein (FL), in 293T cells (UniProt P08134); experiment: co-IP; 293T cells transfected with GNAS (FL or ΔGTP) and/or RhoC (FL or ΔGAP); western blotting
[2] = molecular target: RhoC GAP binding site (aa34-39)-deleted truncate (ΔGAP) (UniProt P08134); experiment: as above
[3] = molecular target: RhoC, bacterial expression (pGEX-6p-1) (UniProt P08134); experiment: co-IP; in vitro co-IP of proteins expressed from pGEX-6p-1 in E. coli BL21; the paper calls the interactions direct; conditions not described
[4] = molecular target: FLAG-tagged full length TEM8 (tumor endothelial marker 8) (human) (UniProt Q9H6X2); experiment: co-IP; MDA-MB-231 cells; lysates in EBC buffer (50 mM Tris, 120 mM NaCl, 0.5% NP40, pH7.5), FLAG-beads or anti-HA antibody on protein A/G agarose overnight at 4 °C, NETN wash, western blotting

## Full length GNAS protein (FL), transfected into 293T cells (from UniProt P63092 1-394)
[1]
  binding: binds
[2]
  binding: no binding

## HA-tagged GNAS, bacterial expression (pGEX-6p-1) (from UniProt P63092 1-394)
[3]
  binding: binds

## Ras homolog family member C (RhoC), in MDA-MB-231 cells (from UniProt P08134 1-193)
[4]
  binding: binds
